Assay results from paper doi:10.1101/2024.08.06.606738.
These are yes or no findings as the source states them, for the method shown. In cells and extracts the contact can be indirect. Some results given as binding are weak or reduced against the parent protein; the word gives no strength.

The chains behind the UniProt entries cited, without tags or fusion partners. Where a name states a change or a piece, a line headed by the entry shows the natural chain unless it says otherwise.
UniProt Q9UKA4, whole entry: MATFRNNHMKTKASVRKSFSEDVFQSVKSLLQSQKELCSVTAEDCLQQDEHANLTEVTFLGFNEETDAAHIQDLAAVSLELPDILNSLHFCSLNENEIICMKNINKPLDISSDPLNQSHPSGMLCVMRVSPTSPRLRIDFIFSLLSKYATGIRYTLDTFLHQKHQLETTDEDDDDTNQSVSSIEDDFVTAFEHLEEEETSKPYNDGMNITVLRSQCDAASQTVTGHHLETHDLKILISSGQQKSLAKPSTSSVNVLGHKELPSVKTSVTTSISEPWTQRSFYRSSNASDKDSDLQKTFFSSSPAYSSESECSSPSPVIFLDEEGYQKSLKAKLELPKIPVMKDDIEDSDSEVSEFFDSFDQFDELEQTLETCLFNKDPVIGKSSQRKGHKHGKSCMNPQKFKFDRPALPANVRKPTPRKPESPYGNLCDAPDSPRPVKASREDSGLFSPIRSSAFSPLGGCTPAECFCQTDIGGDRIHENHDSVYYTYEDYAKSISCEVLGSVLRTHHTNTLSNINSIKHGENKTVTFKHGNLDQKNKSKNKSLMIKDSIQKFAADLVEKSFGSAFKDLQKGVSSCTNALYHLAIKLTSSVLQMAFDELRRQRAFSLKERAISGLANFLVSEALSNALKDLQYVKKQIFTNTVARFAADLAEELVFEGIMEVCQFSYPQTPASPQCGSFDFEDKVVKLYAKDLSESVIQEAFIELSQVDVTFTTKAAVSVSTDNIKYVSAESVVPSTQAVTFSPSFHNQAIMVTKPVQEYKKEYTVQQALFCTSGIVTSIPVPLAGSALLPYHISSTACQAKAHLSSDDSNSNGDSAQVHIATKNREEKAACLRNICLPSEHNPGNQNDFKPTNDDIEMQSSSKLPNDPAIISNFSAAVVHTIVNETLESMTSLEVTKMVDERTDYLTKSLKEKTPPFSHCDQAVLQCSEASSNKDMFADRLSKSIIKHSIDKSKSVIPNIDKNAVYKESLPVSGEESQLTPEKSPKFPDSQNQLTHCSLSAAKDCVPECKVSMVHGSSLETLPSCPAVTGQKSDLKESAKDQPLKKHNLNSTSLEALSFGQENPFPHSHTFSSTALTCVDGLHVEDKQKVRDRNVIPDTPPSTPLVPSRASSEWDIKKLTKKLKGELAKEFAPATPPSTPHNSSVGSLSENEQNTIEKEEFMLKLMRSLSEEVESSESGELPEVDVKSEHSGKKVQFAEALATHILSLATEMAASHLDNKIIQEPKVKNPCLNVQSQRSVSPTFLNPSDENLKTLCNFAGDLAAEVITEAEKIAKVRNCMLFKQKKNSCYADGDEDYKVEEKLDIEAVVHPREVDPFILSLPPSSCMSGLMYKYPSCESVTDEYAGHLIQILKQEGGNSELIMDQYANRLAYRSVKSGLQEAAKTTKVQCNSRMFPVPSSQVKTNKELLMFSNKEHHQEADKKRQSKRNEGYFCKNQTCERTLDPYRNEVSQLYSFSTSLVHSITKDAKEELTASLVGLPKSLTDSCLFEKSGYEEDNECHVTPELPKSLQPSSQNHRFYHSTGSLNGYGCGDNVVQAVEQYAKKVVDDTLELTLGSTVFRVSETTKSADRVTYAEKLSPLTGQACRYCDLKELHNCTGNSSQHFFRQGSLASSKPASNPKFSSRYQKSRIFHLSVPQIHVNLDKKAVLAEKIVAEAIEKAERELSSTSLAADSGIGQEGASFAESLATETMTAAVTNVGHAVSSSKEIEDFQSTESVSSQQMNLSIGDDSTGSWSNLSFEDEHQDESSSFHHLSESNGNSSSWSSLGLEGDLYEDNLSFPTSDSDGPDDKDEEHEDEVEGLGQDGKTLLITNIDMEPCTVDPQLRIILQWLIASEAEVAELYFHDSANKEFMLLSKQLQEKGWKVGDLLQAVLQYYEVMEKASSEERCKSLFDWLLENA
UniProt P10644, whole entry: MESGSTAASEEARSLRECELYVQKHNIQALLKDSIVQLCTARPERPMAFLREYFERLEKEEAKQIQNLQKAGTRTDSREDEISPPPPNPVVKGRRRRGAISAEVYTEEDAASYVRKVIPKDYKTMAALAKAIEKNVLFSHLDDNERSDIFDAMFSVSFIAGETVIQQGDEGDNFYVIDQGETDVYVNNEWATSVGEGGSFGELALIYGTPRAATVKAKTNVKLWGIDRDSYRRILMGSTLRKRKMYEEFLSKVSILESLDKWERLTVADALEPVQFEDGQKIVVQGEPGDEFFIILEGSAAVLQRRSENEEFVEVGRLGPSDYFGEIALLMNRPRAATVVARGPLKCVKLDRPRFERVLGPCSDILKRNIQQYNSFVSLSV

What was measured:
[1] = target: HA-tagged AKAP11, wild type (human) (UniProt Q9UKA4); experiment: co-IP
[2] = target: HA-tagged AKAP11 4ALIR mutant (WSNL>AAAA) (human) (UniProt Q9UKA4); experiment: co-IP

## PKA regulatory subunit RIα, endogenous (from UniProt P10644 1-381)
[1]
  binding: binds
[2]
  binding: binds
